Reference: publication PMC3794858, “NECAP 1 Regulates AP-2 Interactions to Control Vesicle Size, Number, and Cargo During Clathrin-Mediated Endocytosis” (PLoS Biology, 2013)
Results are given in words; binding and its absence hold for the method and conditions named. Binding calls can cover weak binding; strength is not graded here. For some of these results: In cells and extracts the contact can be indirect. For some of these results: Tags and fused reporters may be left off the sequences shown.

T1: GST–PHear (NECAP 1 PHear domain, aa 1–133, fused to GST) (mouse) (UniProt Q9CR95)
T1 sequence: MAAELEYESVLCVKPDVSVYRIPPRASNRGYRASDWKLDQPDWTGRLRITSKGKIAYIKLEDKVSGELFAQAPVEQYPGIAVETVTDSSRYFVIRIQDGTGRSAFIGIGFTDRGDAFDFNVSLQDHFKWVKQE

T2: GST–NECAP 1 (mouse) (UniProt Q9CR95)
T2 sequence: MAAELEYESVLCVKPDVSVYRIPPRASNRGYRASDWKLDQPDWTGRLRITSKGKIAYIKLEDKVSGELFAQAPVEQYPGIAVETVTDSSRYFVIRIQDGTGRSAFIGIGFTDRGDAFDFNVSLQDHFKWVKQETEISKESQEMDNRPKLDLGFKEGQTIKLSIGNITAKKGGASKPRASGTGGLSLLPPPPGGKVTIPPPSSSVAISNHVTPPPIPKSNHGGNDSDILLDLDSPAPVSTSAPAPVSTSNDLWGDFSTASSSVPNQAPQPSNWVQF

T3: GST–PHear–Ex (NECAP 1 aa 1–178 fused to GST) (mouse) (UniProt Q9CR95)
T3 sequence: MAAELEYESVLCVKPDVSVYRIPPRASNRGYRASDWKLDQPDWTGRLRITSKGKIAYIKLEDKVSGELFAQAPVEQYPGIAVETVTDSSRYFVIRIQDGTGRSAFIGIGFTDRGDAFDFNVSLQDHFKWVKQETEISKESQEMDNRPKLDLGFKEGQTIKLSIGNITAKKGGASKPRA


Assays:
[1] = molecular target: T1, GST–PHear (NECAP 1 PHear domain, aa 1–133, fused to GST) (mouse); experiment: pull-down; GST fusion proteins precoupled to glutathione-Sepharose, COS-7 cell extract, 1 h at 4°C, 10 mM HEPES pH 7.4, 1% Triton X-100, 50 mM NaCl; Western blot; only the target purified
GST–NECAP 1 (mouse) = molecular target: T2, GST–NECAP 1 (mouse); experiment: as above
[2] = molecular target: T3, GST–PHear–Ex (NECAP 1 aa 1–178 fused to GST) (mouse); experiment: as above
[3] = molecular target: Whole AP-2 purified from brain CCVs (rabbit (endogenous in brain)); experiment: pull-down; competition: AP-2 purified from rabbit brain CCVs bound to 40 µg GST-clathrin terminal domain on glutathione beads, then 1 h at 4°C with buffer or varying amounts of purified PHear–Ex; Western blot; both purified

Row | binding [1] | binding (GST–NECAP 1 (mouse)) | binding [2] | binding [3] | Molecule
1 | binds | binds | binds |  | AP-2 (endogenous, COS-7 cells) (complex)
2 |  |  |  | binds | purified PHear–Ex (soluble competitor) (domain or fragment, UniProt Q9CR95 1-178) MAAELEYESVLCVKPDVSVYRIPPRASNRGYRASDWKLDQPDWTGRLRITSKGKIAYIKLEDKVSGELFAQAPVEQYPGIAVETVTDSSRYFVIRIQDGTGRSAFIGIGFTDRGDAFDFNVSLQDHFKWVKQETEISKESQEMDNRPKLDLGFKEGQTIKLSIGNITAKKGGASKPRA
